Experimental data reported in patent publication US20240417469A1.
Numbering of substitutions follows the chain as printed. No constants are given. Whether binding was seen depends on the method and setting. Some entries that bind do so weakly or less than the wild type. Each block holds one binder with its values, some of them ahead of it.

Protein sequences, listed by entry. Tags and fused reporters are not part of them. Lines headed by an entry give the natural chain unless they say otherwise; changes in a name come on top.
UniProt P07766: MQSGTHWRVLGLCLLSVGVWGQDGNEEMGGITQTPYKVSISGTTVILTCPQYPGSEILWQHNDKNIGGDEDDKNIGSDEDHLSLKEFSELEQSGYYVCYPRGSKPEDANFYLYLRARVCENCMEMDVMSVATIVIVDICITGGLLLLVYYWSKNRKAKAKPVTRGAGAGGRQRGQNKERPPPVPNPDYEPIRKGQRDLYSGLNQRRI
UniProt P04234: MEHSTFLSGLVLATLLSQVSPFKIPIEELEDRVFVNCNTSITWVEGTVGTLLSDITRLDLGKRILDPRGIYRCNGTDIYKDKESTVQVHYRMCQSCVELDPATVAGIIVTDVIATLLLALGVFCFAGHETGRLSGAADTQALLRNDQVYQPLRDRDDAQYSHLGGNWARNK
UniProt P09693: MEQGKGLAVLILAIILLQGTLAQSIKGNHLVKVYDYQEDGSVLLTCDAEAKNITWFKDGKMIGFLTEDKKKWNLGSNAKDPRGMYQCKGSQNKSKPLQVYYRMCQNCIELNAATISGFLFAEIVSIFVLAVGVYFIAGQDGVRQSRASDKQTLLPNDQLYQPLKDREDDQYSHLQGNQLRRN

Tests used:
[1] = target: T1, human CD3 protein (human) (UniProt P07766+P04234); assay: ELISA
[2] = target: T2, human CD3 on cells (human PBMC; Jurkat TCR/CD3 NFAT reporter cells) (human) (UniProt P07766+P04234+P09693); assay: FACS on human PBMC
[3] = target: T2, human CD3 on cells (human PBMC; Jurkat TCR/CD3 NFAT reporter cells) (human); assay: FACS on human PBMC, PE anti-human IgG Fc secondary, geometric mean fluorescence
[4] = target: T1, human CD3 protein (human); assay: ELISA, plate-coated CD3

binding [1]: binds | binding [2]: binds | binding [3]: binds
B1: Hu155A9B1-8 (antibody, V domains shown)
VH: EVQLQESGPGLVKPSETLSLTCTVSGGSISSYNVHWVRQPPGKGLEWIGRVRYNGDTSYNSALKSRVTISRDTSKNQFSLKLSSVTAADTAVYYCARGPYGGSSEPLFDYWGQGTMVTVSS
VL: DIQMTQSPSSLSASVGDRVTITCKASQNINKYLNWFQQKPGKAPRLLIYTTNNLQTGIPSRFSGSGSGTDFTLTISSLQPEDFATYYCLQHNSGYTFGQGTKLEIK

binding [4]: binds
B2: 155A9B1 chimeric mAb (antibody, V domains shown)
VH: QVQLKESGPGLVQPSQTLSLTCTVSGFSLTSYNVHWVRQPPGKGLEWMGRVRYNGDTSYNSALKSRLSISRDTSKNQAFLKMNSLQIDDTGTYYCTRGPYGGSSEPLFDYWGQGVMVTVSS
VL: B1 VL with Q3K, S10F, T22N, P40L, K42E, F83V, Y87F, Q99A, I105L

binding [1]: binds
B3: Hu192A7B9-24 (antibody, V domains shown)
VH: EVQLQESGPGLVKPSETLSLTCTVSGFSLTSYNVHWVRQPPGKGLEWMGRMRYNGDTSYNSALKSRLTISRDTSKNQVSLKLSSVTAADTAVYYCTRGPRGGYYSALFDYWGQGTMVTVSS
VL: B1 VL with K31R, F36Y, R45K, L46V, Y49S, T50I, T51A, N53S, Y87F, G94W

binding [1]: binds
B4: Hu192A7B9-21 (antibody, V domains shown)
VH: B3 VH with F27G, L29I, T30S, V78F, T96A
VL: B1 VL with K31R, F36Y, R45K, L46V, Y49S, T50I, T51A, N53S, Y87F, G94W

binding [1]: binds
B5: Hu192A7B9-20 (antibody, V domains shown)
VH: B1 VH with V51M, Y100R, S103Y, S104Y, E105S, P106A
VL: B1 VL with K31R, F36Y, R45K, L46V, Y49S, T50I, T51A, N53S, Y87F, G94W

binding [1]: binds
B6: Hu192A7B9-22 (antibody, V domains shown)
VH: B3 VH with F27G, L29I, T30S, V78F
VL: B1 VL with K31R, F36Y, R45K, L46V, Y49S, T50I, T51A, N53S, Y87F, G94W

binding [1]: binds
B7: Hu192A7B9-23 (antibody, V domains shown)
VH: B3 VH with L29I, T30S
VL: B1 VL with K31R, F36Y, R45K, L46V, Y49S, T50I, T51A, N53S, Y87F, G94W

binding [4]: binds
B8: 192A7B9 chimeric mAb (antibody, V domains shown)
VH: B2 VH with T21N, V51M, A78V, I87T, Y100R, S103Y, S104Y, E105S, P106A
VL: DIQMTQSPSFLSASVGDRVTINCKASQNINRYLNWYQQKLGDAPKVLISIANSLQTGIPSRFSGSGSGTDFTLTISSLQPEDVATYFCLQHNSWYTFGAGTKLELK

binding [4]: binds
B9: 153A6B1 chimeric mAb (antibody, V domains shown)
VH: B2 VH with V34I, V51I, A78V, N83S, I87T, S104R
VL: DIKMTQSPSFLSAAVGDRVTINCKTSQNINKYLNWFQQKLGAAPKLLIYTTNNLQTGIPSRFSGSGSGTDFTLTISSLQPEDVATYFCLQHGSGYTFGAGTKLELK
